## Percent effect of library compounds

Protein sequences, listed by entry. Tags and fused reporters are not part of them.
UniProt P9WPC5, whole entry: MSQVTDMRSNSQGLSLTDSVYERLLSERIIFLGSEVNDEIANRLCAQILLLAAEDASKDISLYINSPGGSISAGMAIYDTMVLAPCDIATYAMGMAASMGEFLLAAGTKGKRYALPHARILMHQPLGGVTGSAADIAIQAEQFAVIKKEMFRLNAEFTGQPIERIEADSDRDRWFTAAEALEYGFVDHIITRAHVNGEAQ
UniProt P9WPC3, whole entry partner: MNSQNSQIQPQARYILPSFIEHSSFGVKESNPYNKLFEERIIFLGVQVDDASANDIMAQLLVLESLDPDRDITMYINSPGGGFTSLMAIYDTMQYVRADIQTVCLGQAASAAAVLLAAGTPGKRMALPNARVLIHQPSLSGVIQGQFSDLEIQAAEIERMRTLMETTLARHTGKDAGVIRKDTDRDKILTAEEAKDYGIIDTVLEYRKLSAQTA
UniProt P9WFT3, whole entry: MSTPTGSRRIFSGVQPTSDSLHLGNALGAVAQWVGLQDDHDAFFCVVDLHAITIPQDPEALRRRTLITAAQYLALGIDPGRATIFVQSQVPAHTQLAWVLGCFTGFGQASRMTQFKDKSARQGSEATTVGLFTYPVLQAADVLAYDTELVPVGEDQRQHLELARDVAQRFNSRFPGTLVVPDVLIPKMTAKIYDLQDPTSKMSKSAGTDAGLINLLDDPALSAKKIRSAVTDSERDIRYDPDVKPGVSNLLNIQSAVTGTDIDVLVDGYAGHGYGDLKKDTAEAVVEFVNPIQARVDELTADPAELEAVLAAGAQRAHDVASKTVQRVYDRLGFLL

Source: ChEMBL document CHEMBL3988442, “University of Dundee, Small-Polar-MMV Screening Library” (2021).

A: 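Protease assay of ClpP1P2, read by the AMC dye that it sets free. Target: ClpP1P2, Mycobacterium tuberculosis (UniProt P9WPC5 and UniProt P9WPC3). Concentration: 50 µM. Higher reads as stronger inhibition, judged from the few compounds that gave an IC50. Most other retested compounds had strongly negative values. Size under these conditions: about 69,000 compounds, about 10 of them at 50% or above in at least one test.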
B: 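Tryptophan-tRNA ligase, Mycobacterium tuberculosis (UniProt P9WFT3). Enzyme assay of tryptophanyl-tRNA synthetase; the read-out is not stated. Tested at 10 µM. Higher most likely means stronger inhibition; the record gives no direction and few retests gave an IC50. About 65,000 compounds were tested under these conditions; 0.098% (about 64) showed 50% or more at least once.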

The filed quantity is “Percent Effect” (%). The record does not define 0% and 100%; most values in the screen are far below 50% and negative numbers occur (in some assays of this library far below -100). Compounds were drawn at random from those tested, without regard to their results.

{"compound": "Cc1nc(CCNC(=O)NCC(O)c2cccc(Cl)c2)cs1", "stereo": "configuration not stated", "A": 2.933, "B": 0.7936}
{"compound": "Cn1ccnc1CN1CCN2C[C@H](Oc3cccc(F)c3)C[C@H]2C1", "A": -14.79, "B": -1.79}
{"compound": "Cc1ccc(F)c(-n2nnc(C(=O)O)c2-c2ccncc2)c1", "A": -5.077, "B": -5.826}
{"compound": "CSc1sc(NC(=O)Cc2c(C)nc(C)[nH]c2=O)nc1C", "A": 0.589, "B": -3.459}
{"compound": "CC(Cn1cccn1)NC(=O)Cc1cccs1", "stereo": "configuration not stated", "A": 3.157, "B": 0.4223}
{"compound": "CCn1cncc1Cn1cccc(C(F)(F)F)c1=O", "A": 15.8, "B": 7.204}
{"compound": "CCCS(=O)(=O)c1ccc(N2CCN(Cc3ccccc3)CC2)nn1", "A": -3.399, "B": -4.483}
{"compound": "Cc1cnc(N2C[C@@H]3CCN(CC(=O)N(C)C)C(=O)[C@H]3C2)nc1", "A": 15.4, "B": 4.026}
{"compound": "COc1cccc(C2CCCN2CCCNS(C)(=O)=O)c1", "stereo": "configuration not stated", "A": -24.1, "B": -8.481}
{"compound": "O=S(=O)(Cc1cc(-c2ccccc2)no1)CC1CCCO1", "stereo": "configuration not stated", "A": 2.317, "B": 1.762}
{"compound": "Cc1ccc(CN2C(=O)CC[C@]23CC[C@@H](NC2CCOC2)CC3)cc1", "stereo": "some centres not stated", "A": -8.62, "B": 9.62}
{"compound": "O=C(NS(=O)(=O)c1cccc(C(F)(F)F)c1)c1cnsn1", "A": -17.72, "B": -0.3458}
{"compound": "CCSCCC(=O)N1CCc2[nH]nc(COc3ccccc3)c2C1", "A": 11.66, "B": -2.88}
{"compound": "Cc1ccoc1C(=O)N1CCCN(Cc2cnn(C)c2)CC1", "A": -46.08, "B": -4.263}
{"compound": "CCC1CCCCN1C(=O)CCn1cnc2sccc2c1=O", "stereo": "configuration not stated", "A": 1.694, "B": -0.4566}
{"compound": "CC(C)NC(=O)N1CCc2onc(C(=O)NCCN(C)C)c2C1", "A": 3.934, "B": -2.185}
{"compound": "CCCC(=O)N1CCC(c2cc[nH]n2)C1", "stereo": "configuration not stated", "A": 1.199, "B": 0.8832}
{"compound": "CNC(=O)C(C)(C)N1CCC[C@H]1C(=O)NCCN1CCOCC1", "A": 2.329, "B": 4.744}
{"compound": "COCC1COCCC12CCN(S(=O)(=O)c1ccc(C)cc1)CC2", "stereo": "configuration not stated", "A": 4.645}
{"compound": "CCC1c2cccn2CCN1C(=O)c1ccc2nonc2c1", "stereo": "configuration not stated", "A": -3.751, "B": -0.1896}
{"compound": "COc1ccc(C(C)N2CCC(CNC(C)=O)CC2)cc1Cl", "stereo": "configuration not stated", "A": -1.427, "B": -0.4472}
{"compound": "O=C(c1ccoc1)N1CCc2ncc(Cn3cccn3)n2CC1", "A": -1.236, "B": -7.181}
{"compound": "COCCOc1ccc(NC(=O)C2CCC2)cn1", "A": 1.064, "B": 1.81}
{"compound": "CC(=O)N1C[C@H]2CCCN(S(=O)(=O)c3ccc(Cl)s3)[C@H]2C1", "A": 12.94, "B": 28.22}
{"compound": "CC(C)N1CCC2(C=C(C(=O)NC3CC3)c3ccccc32)CC1", "A": -2.776, "B": -5.087}
{"compound": "Cc1cc(C)cc(-c2cc(C3CCOC3)c(C#N)c(N)n2)c1", "stereo": "configuration not stated", "A": -4.9, "B": 8.019}
{"compound": "CCC1COCCN1C(=O)NCc1cccc(-c2cnn(C)c2)c1", "stereo": "configuration not stated", "A": -3.699, "B": -4.755}
{"compound": "O=C1CC2(CCNCC2)C(=O)N1Cc1ccc(F)cc1", "A": 6.231, "B": 7.558}
{"compound": "CC(C)N1CCOC[C@H]1c1nc(C(C)(C)C)c[nH]1", "A": -12.57, "B": 1.593}
{"compound": "CCC(=O)N1CCc2nc3cc(OC)c(OC)cc3c(=O)n2CC1", "A": -8.242, "B": 8.278}
{"compound": "Cc1nn(C)c2c(=O)n(C(C)C)c(NCCc3ccccc3)nc12", "A": 6.882, "B": -0.1295}
{"compound": "COc1ccc(CN2CCOC3(CCCN(c4cnccn4)C3)C2)cc1", "stereo": "configuration not stated", "A": -3.134, "B": 0.3607}
{"compound": "CCC(=O)c1ccc(OCC(=O)NC(C)Cc2cc(C)n[nH]2)cc1", "stereo": "configuration not stated", "A": -4, "B": 0}
{"compound": "O=C(NCCc1nccs1)C1CCCN(Cc2ccco2)C1", "stereo": "configuration not stated", "A": -1.3, "B": -1.051}
{"compound": "CCn1cnnc1CNC(=O)NC(c1ccccc1)C1CCCC1", "stereo": "configuration not stated", "A": 3.029, "B": 0.5942}
{"compound": "Cc1ccc(CN2CCc3ncnc(-c4cccnc4)c3CC2)o1", "A": -4.439, "B": -5.142}

The last 3 entries again:

compound,A,B
O=C(NCCc1nccs1)C1CCCN(Cc2ccco2)C1 (configuration not stated),-1.3,-1.051
CCn1cnnc1CNC(=O)NC(c1ccccc1)C1CCCC1 (configuration not stated),3.029,0.5942
Cc1ccc(CN2CCc3ncnc(-c4cccnc4)c3CC2)o1,-4.439,-5.142